Data reported in PMC4666394, “Human HLTF mediates postreplication repair by its HIRAN domain-dependent replication fork remodelling”.

Assays:
[1] = biological target: T1, HLTF HIRAN domain NN90,91AA N90A,N91A (human) (UniProt Q14527); test: EMSA; details: recombinant protein; residues 56-168; single-stranded DNA
T1 sequence (looked up): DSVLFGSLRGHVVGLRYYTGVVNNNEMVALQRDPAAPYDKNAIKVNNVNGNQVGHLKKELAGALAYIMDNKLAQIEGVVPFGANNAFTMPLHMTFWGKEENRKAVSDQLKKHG

[2] = biological target: T2, HLTF HIRAN domain WT (human) (UniProt Q14527); test: EMSA; details: very high affinity for ssDNA; recombinant protein; residues 56-168; single-stranded DNA
T2 sequence (looked up): T1 sequence (looked up) with A35N, A36N

[3] = biological target: T3, GST-FLAG-HIRAN (WT) (human) (UniProt Q14527); test: competition with a labelled probe; details: 0-1 uM competitor against Cy5 fork, lower affinity than fork; Competition: 20 mM HEPES pH 7.5, 150 mM NaCl, 1 mM DTT, 0.1 ug/mL BSA, 0.2% NP40, 10% glycerol, room temperature 15 min; recombinant protein; residues 56-168; protein details: GST-FLAG; label: 5' fluorescein; single-stranded DNA
T3 sequence (looked up): T1 sequence (looked up) with A35N, A36N

Row | Sequence | binding result [1] | binding result [2] | binding result [3]
1 | GAGAGAGAGAGAGAGAGAGAGAGAGAGAGAGAGAGAGAGAGA [ss 42-mer O1358] | no binding | binds | –
2 | GTTTTCCCAGTCACGACGATGCTCCGGTACTCCAGTGTAGGCATATTACGAATTCTTGAGGCAGGCATGGTAGCT [ss 75-mer O3063] | – | – | binds more weakly

Substitutions are numbered along the chain they refer to. For part of these data: No signal at the amounts used counts as a negative. At least one verdict was read from the data and is not stated in words by the source. Where a protein sequence is shown, tags need not be part of it. For part of these data: For at least one entry, the source does not settle the construct or the ends of the probe. For part of these data: Weaker means in comparison with the reference protein, sequence or condition of that experiment.
